Results of single-concentration screens

Measurements from “University of Dundee, Small-Polar-MMV Screening Library” (2021), ChEMBL document CHEMBL3988442.

T. brucei: 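Whole-parasite assay of Trypanosoma brucei over 72 hours; the read-out is not stated. Compounds at 30 µM. Direction is inferred from retests: higher values go with stronger inhibition. Values scatter widely below zero; nearly all retest evidence comes from the higher of the two concentrations used. Size under these conditions: about 64,000 compounds, about 940 of them at 50% or above in at least one test.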
Toxoplasma: 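Assay of Toxoplasma gondii numbers, read through their beta-galactosidase reporter with a colour substrate. Compounds at 10 µM. Higher reads as fewer parasites (inferred from which compounds were picked for retests). Size under these conditions: about 67,000 compounds, about 260 of them at 50% or above in at least one test.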

The filed quantity is “Percent Effect” (%).
The record does not define 0% and 100%; most values in the screen are far below 50% and negative numbers occur (in some assays of this library far below -100).
The compounds are a random part of those screened.

{"compound": "Cc1ccc2c(c1)c(C)cc(=O)n2CC(=O)O", "T. brucei": -15.04, "Toxoplasma": -0.837}
{"compound": "CC(C)C(C(=O)N1CCN(Cc2ccccn2)CC1)n1cncn1", "stereo": "stereo not shown", "T. brucei": -1.869, "Toxoplasma": 7.672}
{"compound": "CCc1nc(CN(C)CC2CCN(CCO)CC2)no1", "T. brucei": 8.301, "Toxoplasma": -0.2308}
{"compound": "CN1CCN(C(=O)c2cc(C#N)cs2)c2ccccc2C1", "T. brucei": -6.539, "Toxoplasma": -7.366}
{"compound": "Cc1cc(=O)[nH]c(SCC(=O)N(C)CC2Cc3ccccc3CN2C)n1", "stereo": "stereo not shown", "T. brucei": -20.58, "Toxoplasma": -1.435}
{"compound": "Cc1cc(C)c(CNC(=O)N2CCCC2c2cccn2C)c(=O)[nH]1", "stereo": "stereo not shown", "T. brucei": 5.752, "Toxoplasma": -5.793}
{"compound": "Cc1ccc(-c2nc(CN3C[C@@H](C)NC[C@@H]3C)c(C)o2)s1", "T. brucei": 11.25, "Toxoplasma": -3.617}
{"compound": "O=C(c1cnccn1)N1CCn2cnc(COCC3CC3)c2C1", "T. brucei": -46.43, "Toxoplasma": 0}
{"compound": "[H][C@@]12CN(Cc3scnc3C)C[C@@H](C(=O)NCC3CC3)[C@]1([H])CCO2", "T. brucei": -3.85, "Toxoplasma": -8.506}
{"compound": "Cn1cccc1CN(C(=O)Cc1cccs1)C1CC1", "T. brucei": -10.25, "Toxoplasma": -15.37}
{"compound": "Cc1nn(C)c(C)c1C1CCCN1Cc1nc(-c2cccs2)no1", "stereo": "stereo not shown", "T. brucei": -6.073, "Toxoplasma": -5.9}
{"compound": "Cc1nn(-c2ccccc2)c(C)c1CNC(=O)NC1CC1", "T. brucei": -13.2, "Toxoplasma": -17.47}
{"compound": "Cc1cc(-c2cccc3c2CCNC3)cnc1-n1cnnc1", "T. brucei": -7.442, "Toxoplasma": 6.213}
{"compound": "O=C(Cc1cccc(Cl)c1)N[C@@H]1CCNC[C@H]1O", "T. brucei": 1.796, "Toxoplasma": -7.602}
{"compound": "Cc1nccc(CNC(=O)N(CCCO)C2CCc3ccccc32)n1", "stereo": "stereo not shown", "T. brucei": -12.39, "Toxoplasma": -69.51}
{"compound": "O=C(O)C(F)(F)F.O=C(O)C(F)(F)F.[H][C@@]12CCN(c3ccc(C)nn3)[C@@]1([H])CCN2Cc1ccsc1", "T. brucei": -72.61, "Toxoplasma": -10.63}
{"compound": "CC(C)N1CCCC(Cc2cncc(Br)c2)CC1", "stereo": "stereo not shown", "T. brucei": 5.427, "Toxoplasma": -5.417}
{"compound": "Cc1cc(CN(C)C(=O)c2cccc(N3CCCS3(=O)=O)c2)no1", "T. brucei": -5.418, "Toxoplasma": -3.606}
{"compound": "COc1cccc(OCC2CCCN(C(=O)c3cc(C)n[nH]3)C2)c1", "stereo": "stereo not shown", "T. brucei": -88.96, "Toxoplasma": 0.2718}
{"compound": "Nc1ccncc1-n1cc(CCO)cn1", "T. brucei": -42.45, "Toxoplasma": -61.36}
{"compound": "[H][C@@]12CCCO[C@]1([H])[C@H](N(C)C)CN(C(=O)c1c(C)noc1C)C2", "T. brucei": -42.38, "Toxoplasma": -3.047}
{"compound": "Cn1c(CN2CCOCC2)nnc1C1CCN(C(=O)C2CCCC2)CC1", "T. brucei": -2.396, "Toxoplasma": -4.501}
{"compound": "CNc1cccc(C2CCCN(C(=O)c3ccn(C)n3)C2)n1", "stereo": "stereo not shown", "T. brucei": -4.597, "Toxoplasma": 6.824}
{"compound": "[H][C@]12CC[C@]([H])(CN(C(=O)c3ccncc3)C1)N(C(=O)C1CCCC1)C2", "T. brucei": 8.804, "Toxoplasma": 4.337}
{"compound": "CN1CCN(c2ccc(Br)cc2NC(=O)c2ccco2)CC1", "T. brucei": 18.86, "Toxoplasma": 10.64}
{"compound": "CC(C)N1CCc2ncn(C(C)C)c2C1C(=O)N1CCN(C)CC1", "stereo": "stereo not shown", "T. brucei": -48.6, "Toxoplasma": -3.29}
{"compound": "COc1ccc(-n2ccc(C(=O)NCCN3CCCC(C)C3)n2)cc1", "stereo": "stereo not shown", "T. brucei": 12.74, "Toxoplasma": 11.87}
{"compound": "Cc1ccc(Cc2sc(NC(=O)C(C)S(C)(=O)=O)nc2C)cc1", "stereo": "stereo not shown", "T. brucei": -6.728, "Toxoplasma": 3.62}
{"compound": "Cn1cc(C2CCCN2C(=O)Cc2n[nH]c3ccccc23)cn1", "stereo": "stereo not shown", "T. brucei": -17.44}

The first 2 entries again:

Cc1ccc2c(c1)c(C)cc(=O)n2CC(=O)O read T. brucei: -15.04%; Toxoplasma: -0.837%.
CC(C)C(C(=O)N1CCN(Cc2ccccn2)CC1)n1cncn1 (stereo not shown) read T. brucei: -1.869%; Toxoplasma: 7.672%.